From patent US6984661B2, “Urea linker derivatives for use as PPAR modulators” (Eli Lilly and Company, priority 2002, dated 2006)
At least one structure is not confirmed: it was looked up by name or label, or the drawing left a doubt.

System: Male Syrian hamsters
Experiment: LDL-cholesterol, total-cholesterol and triglyceride lowering effect in hypercholesterolemic hamsters
Format: in vivo
Settings: 14 days; fenofibrate 200 mg/kg by gavage; compared to vehicle

With `CC(C)OC(=O)C(C)(C)Oc1ccc(C(=O)c2ccc(Cl)cc2)cc1` [fenofibrate] the “total-cholesterol and triglyceride lowering effect” value was “did not show significant efficacy”.
